# Assay results reported in PubChem BioAssay AID1117319 (Southern Research Institute, 2015).
# Amino acid sequences for entries named in this document (tags omitted). A change or cut given only in a name is not applied to a line headed by its entry.
# UniProt P69720: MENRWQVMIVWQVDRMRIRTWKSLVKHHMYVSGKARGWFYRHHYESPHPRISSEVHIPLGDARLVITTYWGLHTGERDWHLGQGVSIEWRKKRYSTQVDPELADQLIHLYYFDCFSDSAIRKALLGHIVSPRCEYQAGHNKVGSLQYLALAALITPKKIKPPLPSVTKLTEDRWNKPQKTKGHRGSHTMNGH
# UniProt P69721: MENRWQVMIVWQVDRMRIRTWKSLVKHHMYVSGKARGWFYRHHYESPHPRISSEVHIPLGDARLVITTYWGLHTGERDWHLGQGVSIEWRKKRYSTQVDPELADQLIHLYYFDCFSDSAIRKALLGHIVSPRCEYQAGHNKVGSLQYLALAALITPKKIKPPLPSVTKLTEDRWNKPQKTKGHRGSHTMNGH
# UniProt P69722: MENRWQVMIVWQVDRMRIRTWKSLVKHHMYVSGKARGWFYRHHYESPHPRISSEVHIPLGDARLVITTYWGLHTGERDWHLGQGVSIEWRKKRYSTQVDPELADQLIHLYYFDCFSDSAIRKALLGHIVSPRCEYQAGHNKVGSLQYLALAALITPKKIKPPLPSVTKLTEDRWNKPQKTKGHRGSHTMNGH
# UniProt P69723: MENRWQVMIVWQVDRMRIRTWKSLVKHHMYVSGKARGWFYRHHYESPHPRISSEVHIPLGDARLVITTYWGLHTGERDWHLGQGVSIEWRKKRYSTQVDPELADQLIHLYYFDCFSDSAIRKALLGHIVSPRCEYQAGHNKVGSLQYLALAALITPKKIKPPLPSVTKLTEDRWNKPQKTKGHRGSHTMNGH
# UniProt Q9HC16: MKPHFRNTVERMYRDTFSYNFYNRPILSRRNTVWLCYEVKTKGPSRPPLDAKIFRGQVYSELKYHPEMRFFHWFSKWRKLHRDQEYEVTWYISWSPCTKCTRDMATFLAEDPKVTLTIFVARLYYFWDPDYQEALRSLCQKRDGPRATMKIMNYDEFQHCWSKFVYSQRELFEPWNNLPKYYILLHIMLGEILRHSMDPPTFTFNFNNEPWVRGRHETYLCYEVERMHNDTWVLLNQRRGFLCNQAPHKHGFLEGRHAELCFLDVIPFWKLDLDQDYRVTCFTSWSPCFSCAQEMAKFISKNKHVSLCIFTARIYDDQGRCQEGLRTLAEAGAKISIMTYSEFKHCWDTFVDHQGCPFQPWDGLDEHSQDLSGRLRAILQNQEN
# Among all 260,000 compounds or so, about 1,500 (0.58%) were called active. This list was built around the results that the source calls inconclusive (neither active nor inactive); the mix of calls is not that of the screen.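 Rule for the calls: active = inhibition above a set limit at one or more doses, reproduced on every date tested; inconclusive = results disagree between test dates, or hit never tested in dose response; inactive = the rest.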
# Biological target: Virion infectivity factor (Human immunodeficiency virus type 1 group M subtype B (isolate BH10)) + Virion infectivity factor (Human immunodeficiency virus type 1 group M subtype B (isolate BRU/LAI)) + Virion infectivity factor (Human immunodeficiency virus type 1 group M subtype B (isolate PCV12)) + Virion infectivity factor (Human immunodeficiency virus type 1 group M subtype B (isolate HXB2)) + DNA dC->dU-editing enzyme APOBEC-3G (Homo sapiens) (UniProt P69720+P69721+P69722+P69723+Q9HC16)
# Experiment: inhibitors of Vif binding to APOBEC3G peptide, primary screen, biochemical, TR-FRET, GST-Vif 1-94, biotin-A3G peptide, dose response retest (AID 1117319);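 note: Vif residues 1-94 fused to GST binding biotinylated APOBEC3G peptide 110-148; 0% = full assay without inhibitor and 100% = GST in place of GST-Vif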
# Conditions: stronger effect = higher value
row,SMILES,inhibition
1,Cc1cc(C)cc(C(=O)NCC(=O)OCC(=O)NCC(F)(F)F)c1,inconclusive: 45.6%
2,O=C(C1=C[C@H](c2ccc(Br)cc2)C[C@H](OCc2ccc(CO)cc2)O1)N1CCOCC1,inactive: 15.5%
3,Cn1ccc(=Nc2ccc(NC(=O)c3ccc(N=c4ccn(C)c5ccc([N+](=O)[O-])cc45)cc3)cc2)cc1,inconclusive: 39.2%
4,Cc1ccc(C(C#N)c2ccc3c(C(F)(F)F)cc(C(F)(F)F)nc3n2)cc1 (centres undefined),inconclusive: 52.2%
5,Cc1ccc([N+](=O)[O-])cc1S(=O)(=O)Nc1ccccn1,inactive: 11.9%
6,Cc1ccc(-n2c(SCC(=O)Nc3ccc4c5c(cccc35)CC4)nc(O)cc2=O)cc1,inconclusive: 37.4%
7,CCOC(=O)CN(C)Cc1c[nH]c2ccccc12,inconclusive: 55.7%
8,O=C(NNC(=S)Nc1ccccc1)c1ccco1,inconclusive: 38.1%
9,CCOC(=O)N1CCN(C(=O)Cc2ccc(-n3c(=O)[nH]c4ccccc4c3=O)cc2)CC1,inconclusive: 34%
10,C/C(N)=C(/C#N)C(=O)COC(=O)c1cccc2ccccc12,inconclusive: 38.8%
11,Cc1nn(C2CCS(=O)(=O)C2)c(Cl)c1/C=C/C(=O)OCC(=O)Nc1ccccc1OC(F)F (centres undefined),inconclusive: 56.2%
12,COc1c(OC(C)=O)ccc(/C=C/c2ccc3cccc(OCc4ccccc4)c3n2)c1[N+](=O)[O-],inactive: 5.7%
13,COCCn1c(=S)[nH]c2cc(C(=O)N3CCc4ccccc43)ccc2c1=O,inconclusive: 33%
14,CCC(C)(C)n1nnnc1C(CC(C)C)N1CCC(C(N)=O)CC1 (centres undefined),inconclusive: 35.5%
15,c1ccn(-c2ccc(N3CCOCC3)cc2)c1,inconclusive: 36.9%
16,c1ccc(CSc2nnc(-c3ccco3)o2)cc1,inconclusive: 42.1%
17,O=C(COc1cccc2ccccc12)N/N=C/c1ccccc1OCc1ccc(C(=O)O)cc1,inconclusive: 38.4%
18,COc1ccc(NC(=O)CC(NCc2ccccn2)C(=O)O)cc1 (centres undefined),inconclusive: 54.3%
19,CCOc1cc(C)c(Cl)cc1S(=O)(=O)n1nnc2ccccc21,inconclusive: 33.1%
20,S=C(Nc1ccccc1Cl)Nc1ccc(Cl)cc1Cl,inconclusive: 34.5%
21,COCCNC(=O)/C(C#N)=C/c1cc(Br)c(O)c(OC)c1,inconclusive: 33.5%
22,O=C(Nc1ccc2cn[nH]c2c1)c1c(Cl)cccc1Cl,inactive: 2.79%
23,COC(=O)CC1COc2ccccc2N1C(=O)c1ccc(Cl)cc1 (centres undefined),inconclusive: 42.1%

row,SMILES,inhibition
1,CCOC(=O)N1CCN(Cc2cc(Cl)c3cccnc3c2O)CC1,inconclusive: 63.8%
2,O=C(N/N=C/c1ccc([N+](=O)[O-])o1)c1ccccc1-n1cccc1,inconclusive: 39.5%
3,O=c1c2cc3c(=O)n(-c4ccccc4O)c(=O)c3cc2c(=O)n1-c1ccccc1O,inconclusive: 34%
4,O=C(Nc1nc2ccccc2s1)c1ccccc1,inconclusive: 48.9%
5,COc1cc(/C=N/NC(=O)c2ccc(CSc3nc4ccccc4[nH]3)cc2)cc(OC)c1OC,inconclusive: 42.6%
6,CN(CCc1ccccn1)C(=O)Nc1ccc(Cl)cc1,inconclusive: 62.1%
7,COc1ccccc1C(=O)Oc1ccc(C(C)C)cc1,inconclusive: 57%
8,CC(=O)Nc1ccc2c(c1)OCCOCCOc1cc(NC(C)=O)ccc1OCCOCCOCCO2,inactive: 30.1%
9,COc1ccc2[nH]c3ccc(OC)cc3c2c1,inconclusive: 47.6%
10,COC(=O)C1=C(C)NC(=O)CC1c1cccc(OC)c1OC (centres undefined),inconclusive: 34.4%
11,O=C(CSc1ccc(C(F)(F)F)cn1)Nc1ccccc1,inconclusive: 53.7%
12,C=CCN1/C(=C2/SC(=S)N(C)C2=O)Sc2ccccc21,inactive: 11.3%
13,CNC(=S)N/N=C/c1cn(Cc2c(F)cccc2Cl)c2ccccc12,inconclusive: 42.3%
14,COC(=O)C1=C(C)NC(C)=C(C(=O)OC)C1c1cc2cc(C)ccc2[nH]c1=O,inactive: -2.33%
15,N#Cc1nc(COc2ccc(-c3ccccc3)cc2)oc1NCCCN1CCOCC1,inconclusive: 35.9%
16,CCC(SCC(=O)OC)C(=O)Nc1nnc(C(C)C)s1 (centres undefined),inconclusive: 40.4%
17,COc1ccc(C(=O)N2N=C(c3ccccc3)CC2(O)C(F)(F)F)cc1 (centres undefined),inconclusive: 39.6%
18,CCn1nc2cc(C(=O)NCC34CC5CC(CC(C5)C3)C4)ccc2c1OC,inconclusive: 36.6%
19,CCCCOC(=O)c1cccc(NC(=O)CCC(=O)O)c1,inactive: -3.12%
20,C=CCn1c(=NC(=O)c2ccc(S(=O)(=O)N3CCCc4ccccc43)cc2)sc2cc(S(N)(=O)=O)ccc21,inconclusive: 43.1%
21,CC(=C/c1ccco1)/C=N/NC(=O)c1ccncc1,inconclusive: 47.3%
22,CCOCc1c(C(=O)OCC(=O)Nc2ccc(C)c(S(=O)(=O)N(C)C)c2)oc2ccccc12,inconclusive: 44.7%
23,Cc1ccc(CSc2nc3ncccc3[nH]2)cc1,inconclusive: 33.2%

row,SMILES,inhibition
1,Cc1ccc(OCc2nnc(SCC(=O)c3cccc([N+](=O)[O-])c3)n2C)cc1,inconclusive: 62.9%
2,CCOc1cc(/C=N/n2cnnc2)cc(Br)c1O,inconclusive: 35.1%
3,Cc1ccc2c(c1)CCCN2C(=O)NC1CCCCC1,inconclusive: 39.7%
4,CCN(CC)C1CCN(Cc2cn[nH]c2-c2ccc(OC)c(F)c2)C1 (centres undefined),inconclusive: 53.5%
5,CC1(C)CC(N(Cc2ccco2)C(=O)Cc2ccccc2)CCO1 (centres undefined),inconclusive: 50.6%
6,CCN(CC)C(=O)COc1ccc2oc(-c3ccco3)cc(=O)c2c1,inconclusive: 42.2%
7,COC(=O)c1ccccc1NC(=O)CSc1nc(N)cc(=O)[nH]1,inconclusive: 49.1%
8,O=C(Cn1cnc2cc([N+](=O)[O-])ccc2c1=O)Nc1cccc2ccccc12,inconclusive: 35.6%
9,O=C(NCCCn1ccnc1)c1cn(-c2ccccc2)nc1-c1ccccc1,inconclusive: 56.5%
10,COc1cc2c(C(=O)N3CCN(C)CC3)c(C)n(-c3ccccc3)c2cc1Br,inconclusive: 57.2%
11,CC(C)n1nc(C(=O)Nc2nc3ccc(S(C)(=O)=O)cc3s2)c2ccccc2c1=O,inconclusive: 54.2%
12,CCCCCC1(C(=O)OCC)CC(CSC(=N)N)OC1=O (centres undefined),inconclusive: 44%
13,CNCc1ccccc1Sc1ccc(OC)cc1,inactive: 4.31%
14,Cn1c(CNC(=O)CNC(=O)c2cccc(F)c2)cc(=O)n(C)c1=O,inactive: 1.22%
15,CC(NC(=O)c1cccc(S(=O)(=O)N2CCN(Cc3ccccc3)CC2)c1)c1ccc(Cl)cc1 (centres undefined),inactive: 3.65%
16,O=C(CCn1c(=S)oc2ccccc21)NC1CCCCCCC1,inactive: -0.87%
17,CC1=C(C(=O)OC(C)C)C(c2ccc(C)o2)C(C(=O)OC(C)C)=C(C)N1,inconclusive: 55.6%
18,Cc1cc(C(=O)O)ccc1-c1ccc(/C=C2\NC(=O)N(Cc3ccc(F)cc3)C2=O)o1,inconclusive: 52.9%
19,Cc1cc(=S)c2ccccc2[nH]1,inconclusive: 59.5%
20,Cc1cc(C(=O)NNC(=O)/C=C/c2ccccc2Cl)c(C)o1,inactive: -12.6%
21,N#Cc1nc(-c2cccc3ccccc23)oc1NCC1CCCO1 (centres undefined),inconclusive: 40.8%
22,COc1ccccc1C(=O)COC(=O)c1ccc(N(C)C)cc1,inconclusive: 39.9%
23,CCOc1ccc(N(CC(=O)NCCc2ccc(OC)cc2)S(C)(=O)=O)cc1,inconclusive: 36.6%

# Quoted from the listing:
# In inhibition, `Cc1ccc2c(c1)CCCN2C(=O)NC1CCCCC1` has the entry inconclusive: 39.7%
# In inhibition, `CC1=C(C(=O)OC(C)C)C(c2ccc(C)o2)C(C(=O)OC(C)C)=C(C)N1` has the entry inconclusive: 55.6%
# In inhibition, `CC(NC(=O)c1cccc(S(=O)(=O)N2CCN(Cc3ccccc3)CC2)c1)c1ccc(Cl)cc1` (centres undefined) has the entry inactive: 3.65%

# More entries follow.

row,SMILES,inhibition
1,Cc1cc(C#N)c(C)n1-c1cc(C(F)(F)F)ccc1N1CCOCC1,inconclusive: 43%
2,COCCNC(=O)CN1c2ccccc2CC1C (centres undefined),inconclusive: 42.8%
3,CC(=O)Nc1ccc(S(=O)(=O)Nc2nc(-c3ccc(C(C)(C)C)cc3)cs2)cc1,inconclusive: 49.4%
4,CC1OC(Oc2c(-c3cc(O)c(O)c(O)c3)oc3cc(O)cc(O)c3c2=O)C(O)C(O)C1O (centres undefined),inconclusive: 50.2%
5,CC(=O)n1cc([C@@H]2C=C(C(=O)NCc3ccccc3)O[C@H](OCCCCO)C2)c2ccccc21,inconclusive: 48.1%
6,O=C(O)/C=C/C(=O)Nc1ccc(Oc2ccc(NC(=O)/C=C/C(=O)O)cc2)cc1,inconclusive: 48.8%
7,CCOC(=O)CSc1nnc(CNC(=O)c2ccc(OC)cc2)n1-c1ccc(OC)cc1,inconclusive: 46.8%
8,N#CNC(=Nc1cccc(C(F)(F)F)c1)SCc1ccc(C(=O)O)cc1,inconclusive: 37.4%
9,C=CCc1c(C)c(C#N)c2nc3ccccc3n2c1N1CCCCC1,inconclusive: 43.7%
10,Oc1ccc(/C=C/c2ccnc3ccccc23)cc1,inconclusive: 47.3%
11,COCCNC(=O)c1cnn2c(C(F)(F)F)cc(-c3ccc4c(c3)OCO4)nc12,inconclusive: 34.8%
12,Cc1ccc(OC(=O)c2cccnc2)cc1,inactive: -1.57%
13,Cc1ccc2nc(-c3cccc(Br)c3)cc(C(=O)NC3=NCCS3)c2c1,inconclusive: 43%
14,C/C(Cn1nnc2ccccc21)=N\OC(=O)c1cc(F)c(F)cc1Cl,inconclusive: 50.1%
15,O=C(O)CCCN1C(=O)c2cccc3cccc(c23)C1=O,inconclusive: 37.9%
16,COc1ccc(NC(=O)CCNS(=O)(=O)c2cccc3nonc23)cc1Cl,inactive: 7.84%
17,CC(=O)OC(C(=O)NCc1ccco1)c1ccncc1 (centres undefined),inconclusive: 35.4%
18,Cc1cccc(Nc2cnn(C34CC5CC(CC(CC(=O)O)(C5)C3)C4)c(=O)c2Cl)c1,inactive: 5.69%
19,O=C(COC(=O)COc1ccc(Nc2ccccc2)cc1)NCc1ccco1,inconclusive: 40.3%
20,COc1cc(C2NC(=O)NC(C)=C2[N+](=O)[O-])cc(OC)c1OC (centres undefined),inconclusive: 37%
